Results are given in words; binding and its absence hold for the method and conditions named. Some entries that bind do so weakly or less than the wild type.
B1: Fab phage clone "57D" (Fab, V domains shown)
VH: EVQLVQSGGGLVQPGGSLRLSCAASGFTVSSNYMSWVRQAPGKGLEWVSVIYSGGSTYYADSVKGRFTISRDNSKNTLYLQMNSLRAEDTAVYYCARDSDGGDYGYWGQGTLVTVSS
VL: EIVLTQSPGTLSLSPGERATLSCRASQYVSSNSLAWYQQKAGQAPRLLIYGASNRATGIPDRFSGSGSGTDFTLTISRLEPEDFAVYYCQQYGSSPITFGQGTRLEIKR
B2: Fab phage clone "BS-A" (Fab, V domains shown)
VH: QVQLQQWGAGLLKPSETLSLTCAVYGGSFSGYYWSWIRQPPGKGLEWIGEINHSGSTNYNPSLKSRVTISVDTSKNQFSLKLSSVTAADTAVYYCARGRARNWRSRFDYWGQGTLVTVSS
VL: NFMLTQPHSVSESPGKTVTISCTGSSGSIASHYVQWYQQRPGSAPTNVIYEDKERPSGVPDRFSGSIDSSTNSASLTISGLKTEDEADYYCQSYDSSNQWVFGGGTKLTVLG
B3: Fab phage clone "IFN-A" (Fab, V domains shown)
VH: EVQLQQWGAGLLKPSETLSLTCAVYGGSFSGYYWSWIRQPPGKGLEWIGEINHSGSTNYNPSLKSRVTISVDTSKNQFSLKLSSVTAADTAVYYCARGWPTYVWGSYRPKGYFDYWGQGTLVTVSS
VL: EIVLTQSPLSLPVTPGEPASISCRSSQSLLHTNEYNYLDWYLQKPGQSPQLLIYLGSNRAPGVPDRFSGSGSGTDFTLRISRVEADDVGVYYCMQALQTPRTFGQGTKLEIKR
B4: Fab phage clone "RD-A2" (Fab, V domains shown)
VH: QVQLQQWGAGLLKPSETLSLTCAVYGGSFSGYYWSWIRQPPGKGLEWIGEINHSGSTNYNPSLKSRVTISVDTSKNQFSLKLSSVTAADTAVYYCARDKGSRITIFGVVGSAGFDYWGQGTLVTVSS
VL: DVVMTQSPLSLPVTPGEPASISCRATQSLLHGNGHNYLDWYLQKPGQSPHLLIYMGSNRASGVPGRFSGTESGRNFTLKISRVEAEDVGVYYCMQALQLPPTFGQGTRVDIKR
B5: Fab phage clone "57E" (Fab, V domains shown)
VH: QVQLQESGPGLVKPSETLSLTCAVSGGSISSGGYSWSWIRQPPGKGLEWIGYIYHSGSTYYNPSLKSRVTISVDRSKNQFSLKLSSVTAADTAVYYCARGDWGYFDYWGQGTLVTVSS
VL: NFMLTQPHSVSESPGKTVTISCTGSSGSIANNYVHWYQQRPGSAPTTVIFEDDQRPSGVPDRFSGSVDSSSNSASLSISGLKTEDEADYYCQSYDNSNSFVVFGGGTKLTVLG
B6: Fab phage clone "58C" (Fab, V domains shown)
VH: EVQLLESGGGLVKPGGSLRLSCAASGFTFSSYSMNWVRQAPGKGLEWVSSISSGSSYRYDADSVKGRFTISRDNSKNTLYLQMNSLRAEDTAIYYCADQMGTISGNDYWGQGTLVTVSS
VL: QSVLTQPPSVSVAPGKTATITCGGDNLGGKSLHWYQQKPGQAPVLVVYDDSDRPSGIPERFSGSNSGNTATLTIDRVEDGDEADYYCQVWDGSSDQRVFGGGTRLTVLG
B7: Fab phage clone "67C" (Fab, V domains shown)
VH: ANTLEESGPTLVQPTQTLTLTCSYSGFSLSSNEAGVGWIRQPPGKAPEWLALLYWDDDKRYSPSLRSRLIVNKDTSKSQVVLTMTNMDPVDTATYYCAHRLVRYGGYSTGGFDVWGQGTTVTVSS
VL: DIVMTHTPLSLPVTPGEPASISCRSSQSLLRSNGYNYLAWYVQKPGQSPQLLIYLASNRASGVPDRFSGSGSGTDFTLKISSVEAEDVGVYYCVHGVHIPYTFGQGTKLEIKR
B8: Fab phage clone "RD-B1" (Fab, V domains shown)
VH: QVTLKESGPVLVKPTETLTLTCTVSGFSLSNARMGVSWIRQPPGKALEWLAHIFSNDEESYSTSLKSRLTISKDTSQSQVVLTMTNMDPVDTATYYCARLLLYEGFDPWGQGTLVTVSS
VL: DIVMTHTPLSSPVTLGQPASISCRSSQSLVHSDGNTYLSWLHQRPGQPPRLLIYKISNRFSGVPDRFSGSGAGTDFTLKISRVEAEDVGLYYCMQATQLPYTFGQGTKLEIKR

Sequences of proteins named here, by UniProt entry; tags and fusion partners are left off. Residues count along the entry.
UniProt P01579, residues 24-166: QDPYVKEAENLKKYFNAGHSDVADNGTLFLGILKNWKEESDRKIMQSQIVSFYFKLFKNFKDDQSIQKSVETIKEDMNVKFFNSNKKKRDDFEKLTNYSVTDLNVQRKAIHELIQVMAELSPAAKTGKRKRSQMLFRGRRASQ

Target: E. coli expressed human interferon gamma (hIFNγ) (human) (UniProt P01579)
Test: concentration dependent clonal phage ELISA on coated hIFNγ

Binder | binding
B1 | binds
B2 | binds
B3 | binds
B4 | binds
B5 | binds
B6 | binds
B7 | binds
B8 | binds
